# Data reported in publication PMC11269669.
# Results are given in words; binding and its absence hold for the method and conditions named. Binding seen in cells or lysates may run through a third protein. Some results given as binding are weak or reduced against the parent protein; the word gives no strength. For some of these results: Sequences can lack the tags named with a protein.
# T1: His-RBM39-FL (full-length His-tagged RBM39) (UniProt Q14498)
# T1 sequence: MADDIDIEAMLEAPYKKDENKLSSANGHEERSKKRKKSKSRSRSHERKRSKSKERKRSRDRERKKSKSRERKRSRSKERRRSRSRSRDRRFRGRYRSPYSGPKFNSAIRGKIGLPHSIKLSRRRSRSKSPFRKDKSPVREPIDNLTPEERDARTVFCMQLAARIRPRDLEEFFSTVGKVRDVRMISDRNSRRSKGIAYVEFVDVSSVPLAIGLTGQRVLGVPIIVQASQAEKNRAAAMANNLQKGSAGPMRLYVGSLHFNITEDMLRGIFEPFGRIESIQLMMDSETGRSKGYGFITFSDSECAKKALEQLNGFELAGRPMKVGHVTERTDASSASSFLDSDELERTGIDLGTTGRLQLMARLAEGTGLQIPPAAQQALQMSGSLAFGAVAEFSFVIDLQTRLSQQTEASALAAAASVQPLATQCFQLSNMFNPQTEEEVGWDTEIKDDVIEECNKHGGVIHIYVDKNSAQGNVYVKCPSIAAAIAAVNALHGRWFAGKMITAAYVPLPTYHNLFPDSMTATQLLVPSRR
# T2: endogenous RBM39 (RNA binding motif protein 39) (human (endogenous in HCT116, SW480, SW620, HT-29)) (UniProt Q14498)
# T2 sequence: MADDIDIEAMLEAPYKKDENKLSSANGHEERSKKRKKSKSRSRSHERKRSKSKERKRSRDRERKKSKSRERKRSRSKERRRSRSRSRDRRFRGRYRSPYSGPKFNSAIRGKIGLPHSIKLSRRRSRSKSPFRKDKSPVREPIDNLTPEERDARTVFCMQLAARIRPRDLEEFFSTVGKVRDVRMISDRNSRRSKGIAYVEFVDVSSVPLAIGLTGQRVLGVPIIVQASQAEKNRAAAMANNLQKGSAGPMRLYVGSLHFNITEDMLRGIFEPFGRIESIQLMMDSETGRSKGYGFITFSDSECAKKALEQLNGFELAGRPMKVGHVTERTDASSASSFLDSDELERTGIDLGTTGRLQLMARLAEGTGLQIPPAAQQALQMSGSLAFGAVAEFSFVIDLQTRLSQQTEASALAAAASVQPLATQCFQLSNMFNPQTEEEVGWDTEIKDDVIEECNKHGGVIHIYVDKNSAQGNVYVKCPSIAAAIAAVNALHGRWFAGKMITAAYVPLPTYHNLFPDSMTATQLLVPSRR
# T3: GST-RBM39 fusion protein (UniProt Q14498)
# T3 sequence: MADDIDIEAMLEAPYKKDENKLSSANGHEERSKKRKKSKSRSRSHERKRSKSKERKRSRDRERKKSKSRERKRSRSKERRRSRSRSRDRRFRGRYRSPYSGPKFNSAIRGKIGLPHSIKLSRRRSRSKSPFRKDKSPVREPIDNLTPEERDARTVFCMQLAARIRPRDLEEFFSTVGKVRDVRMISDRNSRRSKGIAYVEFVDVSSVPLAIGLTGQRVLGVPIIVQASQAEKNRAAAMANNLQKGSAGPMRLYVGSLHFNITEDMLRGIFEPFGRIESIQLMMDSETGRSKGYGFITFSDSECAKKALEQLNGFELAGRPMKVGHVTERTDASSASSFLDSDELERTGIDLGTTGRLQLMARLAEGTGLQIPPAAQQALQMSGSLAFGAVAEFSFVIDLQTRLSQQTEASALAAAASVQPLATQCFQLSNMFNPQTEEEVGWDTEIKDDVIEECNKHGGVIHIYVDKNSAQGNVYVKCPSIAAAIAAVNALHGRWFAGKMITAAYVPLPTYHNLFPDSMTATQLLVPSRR
# Key:
# [1] = molecular target: T1, His-RBM39-FL (full-length His-tagged RBM39); experiment: co-IP; His-vector, His-full-length and domain-deleted RBM39 plasmids transfected into HCT116 cells; lysates immunoprecipitated with His antibody, western blot
# [2] = molecular target: T2, endogenous RBM39 (RNA binding motif protein 39) (human (endogenous in HCT116, SW480, SW620, HT-29)); experiment: co-IP; endogenous proteins, SW480 cell lysates immunoprecipitated with the indicated antibody or IgG, western blot; IP lysis buffer 20 mM Tris-HCl pH 7.5, 150 mM NaCl, 1% Triton X-100, Protein A/G agarose, overnight at 4 °C
# [3] = molecular target: T2, endogenous RBM39 (RNA binding motif protein 39) (human (endogenous in HCT116, SW480, SW620, HT-29)); experiment: co-IP; nuclear proteins of SW620 or HT-29 cells immunoprecipitated with IgG or RBM39 antibodies, blotted with MORC2 and RBM39 antibodies
# [4] = molecular target: T3, GST-RBM39 fusion protein; experiment: pull-down; GST or GST-RBM39 fusion protein incubated with Flag-MORC2 translated in vitro; bound proteins detected by western blot; only the target purified
binding [1],binding [2],binding [3],binding [4],Binder
binds,binds,binds,–,"endogenous MORC2 (Microrchidia family CW-type zinc finger 2) (protein, UniProt Q9Y6X9 1-1032) MAFTNYSSLNRAQLTFEYLHTNSTTHEFLFGALAELVDNARDADATRIDIYAERREDLRGGFMLCFLDDGAGMDPSDAASVIQFGKSAKRTPESTQIGQYGNGLKSGSMRIGKDFILFTKKEDTMTCLFLSRTFHEEEGIDEVIVPLPTWNARTREPVTDNVEKFAIETELIYKYSPFRTEEEVMTQFMKIPGDSGTLVIIFNLKLMDNGEPELDIISNPRDIQMAETSPEGTKPERRSFRAYAAVLYIDPRMRIFIHGHKVQTKRLSCCLYKPRMYKYTSSRFKTRAEQEVKKAEHVARIAEEKAREAESKARTLEVRLGGDLTRDSRVMLRQVQNRAITLRREADVKKRIKEAKQRALKEPKELNFVFGVNIEHRDLDGMFIYNCSRLIKMYEKVGPQLEGGMACGGVVGVVDVPYLVLEPTHNKQDFADAKEYRHLLRAMGEHLAQYWKDIAIAQRGIIKFWDEFGYLSANWNQPPSSELRYKRRRAMEIPTTIQCDLCLKWRTLPFQLSSVEKDYPDTWVCSMNPDPEQDRCEASEQKQKVPLGTFRKDMKTQEEKQKQLTEKIRQQQEKLEALQKTTPIRSQADLKKLPLEVTTRPSTEEPVRRPQRPRSPPLPAVIRNAPSRPPSLPTPRPASQPRKAPVISSTPKLPALAAREEASTSRLLQPPEAPRKPANTLVKTASRPAPLVQQLSPSLLPNSKSPREVPSPKVIKTPVVKKTESPIKLSPATPSRKRSVAVSDEEEVEEEAERRKERCKRGRFVVKEEKKDSNELSDSAGEEDSADLKRAQKDKGLHVEVRVNREWYTGRVTAVEVGKHVVRWKVKFDYVPTDTTPRDRWVEKGSEDVRLMKPPSPEHQSLDTQQEGGEEEVGPVAQQAIAVAEPSTSECLRIEPDTTALSTNHETIDLLVQILRNCLRYFLPPSFPISKKQLSAMNSDELISFPLKEYFKQYEVGLQNLCNSYQSRADSRAKASEESLRTSERKLRETEEKLQKLRTNIVALLQKVQEDIDINTDDELDAYIEDLITKGD"
–,–,–,binds,"Flag-MORC2 translated in vitro (protein, UniProt Q9Y6X9 1-1032) MAFTNYSSLNRAQLTFEYLHTNSTTHEFLFGALAELVDNARDADATRIDIYAERREDLRGGFMLCFLDDGAGMDPSDAASVIQFGKSAKRTPESTQIGQYGNGLKSGSMRIGKDFILFTKKEDTMTCLFLSRTFHEEEGIDEVIVPLPTWNARTREPVTDNVEKFAIETELIYKYSPFRTEEEVMTQFMKIPGDSGTLVIIFNLKLMDNGEPELDIISNPRDIQMAETSPEGTKPERRSFRAYAAVLYIDPRMRIFIHGHKVQTKRLSCCLYKPRMYKYTSSRFKTRAEQEVKKAEHVARIAEEKAREAESKARTLEVRLGGDLTRDSRVMLRQVQNRAITLRREADVKKRIKEAKQRALKEPKELNFVFGVNIEHRDLDGMFIYNCSRLIKMYEKVGPQLEGGMACGGVVGVVDVPYLVLEPTHNKQDFADAKEYRHLLRAMGEHLAQYWKDIAIAQRGIIKFWDEFGYLSANWNQPPSSELRYKRRRAMEIPTTIQCDLCLKWRTLPFQLSSVEKDYPDTWVCSMNPDPEQDRCEASEQKQKVPLGTFRKDMKTQEEKQKQLTEKIRQQQEKLEALQKTTPIRSQADLKKLPLEVTTRPSTEEPVRRPQRPRSPPLPAVIRNAPSRPPSLPTPRPASQPRKAPVISSTPKLPALAAREEASTSRLLQPPEAPRKPANTLVKTASRPAPLVQQLSPSLLPNSKSPREVPSPKVIKTPVVKKTESPIKLSPATPSRKRSVAVSDEEEVEEEAERRKERCKRGRFVVKEEKKDSNELSDSAGEEDSADLKRAQKDKGLHVEVRVNREWYTGRVTAVEVGKHVVRWKVKFDYVPTDTTPRDRWVEKGSEDVRLMKPPSPEHQSLDTQQEGGEEEVGPVAQQAIAVAEPSTSECLRIEPDTTALSTNHETIDLLVQILRNCLRYFLPPSFPISKKQLSAMNSDELISFPLKEYFKQYEVGLQNLCNSYQSRADSRAKASEESLRTSERKLRETEEKLQKLRTNIVALLQKVQEDIDINTDDELDAYIEDLITKGD"
